These results are taken from patent US20070022485.

The subject of the data set is T1, SB transposase N123 (N-terminal 123 aa DNA-binding domain) (Sleeping Beauty (synthetic, salmonid-derived)).
T1 sequence: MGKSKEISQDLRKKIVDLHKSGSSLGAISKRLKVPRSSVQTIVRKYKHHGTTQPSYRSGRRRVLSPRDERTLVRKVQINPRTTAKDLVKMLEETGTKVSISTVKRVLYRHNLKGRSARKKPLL
Kind of data set: EMSA. Conditions: 25 C, purified recombinant protein, protein details: C-terminal His6 (pET21d, E. coli), label: 32P 5'. In general terms: Mobility shift assays separate free from complexed probe on a gel.

The exact form of at least one protein or probe is not confirmed. Protein sequences can lack the tags named with them.

Consider “CCTTGAAATACATCCACAGGTACACCTCCAATTGACTCAAATGATGTCAATTAGTCTATCAGAAGCTTCTAAAGCCATGACATCATTTTCTGGAATTTTCCAAGCTGTTTAAAGGCACAGTCAACTTAGTGTATGTAAACTTCTGACCCACTGGAATTGTGATACAGTGAATTATAAGTGAAATAATCTGTCTGTAAACAATTGTTGGAAAAATGACTTGTGTCATGCACAAAGTAGATGTCCTAACTGACTTGCCAAAACTATTGTTTGTTAACAAGAAATTTGTGGAGTAGTTGAAAAACGAGTTTTAATGACTCCAACTTAAGTGTATGTAAACTTCCGACTTCAACTGTA (double strand) [IR/DR-L fragment about 300 bp, unmethylated]”, for which the binding result (complexes C1 and C2 correspond to one and two N123 per IR/DR) was “binds”. As for “CCTTGAAATACATCCACAGGTACACCTCCAATTGACTCAAATGATGTCAATTAGTCTATCAGAAGCTTCTAAAGCCATGACATCATTTTCTGGAATTTTCCAAGCTGTTTAAAGGCACAGTCAACTTAGTGTATGTAAACTTCTGACCCACTGGAATTGTGATACAGTGAATTATAAGTGAAATAATCTGTCTGTAAACAATTGTTGGAAAAATGACTTGTGTCATGCACAAAGTAGATGTCCTAACTGACTTGCCAAAACTATTGTTTGTTAACAAGAAATTTGTGGAGTAGTTGAAAAACGAGTTTTAATGACTCCAACTTAAGTGTATGTAAACTTCCGACTTCAACTGTA (double strand) [IR/DR-L fragment about 300 bp, CpG methylated]”, the binding result (5mC at CpG (SssI), no effect of methylation on binding or competition) is listed as “binds”.
